Drawing on the supplement of paper PMC10849652, this text covers log2 fold change for 18 targets.

Sequences of proteins named here, by UniProt entry; tags and fusion partners are left off. A change or cut given only in a name is not applied to a line headed by its entry.
UniProt Q96NT5: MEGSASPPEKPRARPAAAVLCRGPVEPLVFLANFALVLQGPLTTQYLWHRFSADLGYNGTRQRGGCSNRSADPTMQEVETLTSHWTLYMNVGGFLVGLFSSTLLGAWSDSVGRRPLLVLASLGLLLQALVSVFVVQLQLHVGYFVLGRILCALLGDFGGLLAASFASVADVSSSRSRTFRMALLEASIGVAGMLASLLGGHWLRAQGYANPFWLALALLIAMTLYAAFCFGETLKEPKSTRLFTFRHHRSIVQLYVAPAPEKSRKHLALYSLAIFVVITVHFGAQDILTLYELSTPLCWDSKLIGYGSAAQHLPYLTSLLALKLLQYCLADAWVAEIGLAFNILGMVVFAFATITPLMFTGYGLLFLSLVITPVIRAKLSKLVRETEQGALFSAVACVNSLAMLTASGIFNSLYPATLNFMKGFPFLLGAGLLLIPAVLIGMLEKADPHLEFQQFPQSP
UniProt P0C7P3: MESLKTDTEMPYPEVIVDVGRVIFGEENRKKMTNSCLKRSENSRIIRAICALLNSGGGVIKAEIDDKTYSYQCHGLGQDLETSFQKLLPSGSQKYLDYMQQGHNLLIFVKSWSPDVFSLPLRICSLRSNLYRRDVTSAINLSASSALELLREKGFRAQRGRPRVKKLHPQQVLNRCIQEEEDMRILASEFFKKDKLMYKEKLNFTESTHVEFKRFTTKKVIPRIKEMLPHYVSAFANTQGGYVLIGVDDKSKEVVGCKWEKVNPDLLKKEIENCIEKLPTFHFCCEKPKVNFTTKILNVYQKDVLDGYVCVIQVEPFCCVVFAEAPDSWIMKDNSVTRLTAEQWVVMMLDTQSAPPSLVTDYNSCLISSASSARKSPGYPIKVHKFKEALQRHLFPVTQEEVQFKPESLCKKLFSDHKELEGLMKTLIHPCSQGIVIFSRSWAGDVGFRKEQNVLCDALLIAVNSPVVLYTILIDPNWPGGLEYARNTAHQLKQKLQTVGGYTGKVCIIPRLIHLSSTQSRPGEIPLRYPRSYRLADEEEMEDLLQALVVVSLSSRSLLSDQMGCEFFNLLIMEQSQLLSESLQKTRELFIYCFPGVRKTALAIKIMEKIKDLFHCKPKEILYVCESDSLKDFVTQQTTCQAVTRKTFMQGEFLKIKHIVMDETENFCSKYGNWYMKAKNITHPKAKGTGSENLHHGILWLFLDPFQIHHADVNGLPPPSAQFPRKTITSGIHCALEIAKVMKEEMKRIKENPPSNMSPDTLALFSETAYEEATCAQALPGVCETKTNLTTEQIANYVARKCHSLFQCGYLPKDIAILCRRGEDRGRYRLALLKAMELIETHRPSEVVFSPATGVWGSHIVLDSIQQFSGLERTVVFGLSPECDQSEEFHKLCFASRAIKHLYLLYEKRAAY
UniProt P02730: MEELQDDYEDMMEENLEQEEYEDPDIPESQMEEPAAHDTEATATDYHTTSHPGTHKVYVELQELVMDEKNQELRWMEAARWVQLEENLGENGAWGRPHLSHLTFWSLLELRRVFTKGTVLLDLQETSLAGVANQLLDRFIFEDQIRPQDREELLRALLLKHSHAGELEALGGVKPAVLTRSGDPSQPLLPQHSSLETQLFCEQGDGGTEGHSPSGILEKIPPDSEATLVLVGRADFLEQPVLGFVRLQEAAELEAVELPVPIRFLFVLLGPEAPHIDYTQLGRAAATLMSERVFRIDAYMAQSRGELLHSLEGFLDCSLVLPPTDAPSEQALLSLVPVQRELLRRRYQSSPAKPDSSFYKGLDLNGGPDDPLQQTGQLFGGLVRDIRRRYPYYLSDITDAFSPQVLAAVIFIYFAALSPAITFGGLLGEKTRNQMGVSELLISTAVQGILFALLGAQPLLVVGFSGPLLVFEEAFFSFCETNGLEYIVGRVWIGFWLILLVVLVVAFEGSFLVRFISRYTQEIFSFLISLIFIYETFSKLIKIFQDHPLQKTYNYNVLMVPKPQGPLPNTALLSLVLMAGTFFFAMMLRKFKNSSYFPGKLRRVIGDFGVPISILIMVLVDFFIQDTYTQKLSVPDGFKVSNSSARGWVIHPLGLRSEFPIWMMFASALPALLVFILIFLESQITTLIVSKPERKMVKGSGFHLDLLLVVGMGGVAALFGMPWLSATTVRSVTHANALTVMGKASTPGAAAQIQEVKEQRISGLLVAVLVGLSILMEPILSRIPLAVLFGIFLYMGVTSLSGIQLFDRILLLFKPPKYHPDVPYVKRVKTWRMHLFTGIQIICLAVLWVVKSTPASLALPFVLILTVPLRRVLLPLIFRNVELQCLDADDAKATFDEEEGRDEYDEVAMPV
UniProt Q9NTN3, whole entry, looked up: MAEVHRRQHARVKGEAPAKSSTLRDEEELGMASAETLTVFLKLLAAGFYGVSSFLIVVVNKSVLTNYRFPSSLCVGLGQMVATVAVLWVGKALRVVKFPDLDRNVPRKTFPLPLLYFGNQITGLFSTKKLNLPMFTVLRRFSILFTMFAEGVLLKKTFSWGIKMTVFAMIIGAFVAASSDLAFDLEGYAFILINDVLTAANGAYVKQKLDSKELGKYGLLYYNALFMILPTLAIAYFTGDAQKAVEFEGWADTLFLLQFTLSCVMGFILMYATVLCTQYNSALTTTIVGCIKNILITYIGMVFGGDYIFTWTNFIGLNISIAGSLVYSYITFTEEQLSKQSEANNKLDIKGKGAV
UniProt Q8IXU6: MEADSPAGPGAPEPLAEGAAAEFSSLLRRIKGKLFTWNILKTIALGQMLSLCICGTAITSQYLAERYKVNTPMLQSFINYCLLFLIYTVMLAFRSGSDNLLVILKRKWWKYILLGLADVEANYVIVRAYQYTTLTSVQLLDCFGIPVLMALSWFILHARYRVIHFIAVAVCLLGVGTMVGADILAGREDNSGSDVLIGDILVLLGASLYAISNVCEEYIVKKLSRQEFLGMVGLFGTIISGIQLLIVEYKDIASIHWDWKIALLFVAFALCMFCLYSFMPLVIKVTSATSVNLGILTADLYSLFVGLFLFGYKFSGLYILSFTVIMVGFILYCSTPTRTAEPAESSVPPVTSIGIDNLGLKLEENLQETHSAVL
UniProt O94956: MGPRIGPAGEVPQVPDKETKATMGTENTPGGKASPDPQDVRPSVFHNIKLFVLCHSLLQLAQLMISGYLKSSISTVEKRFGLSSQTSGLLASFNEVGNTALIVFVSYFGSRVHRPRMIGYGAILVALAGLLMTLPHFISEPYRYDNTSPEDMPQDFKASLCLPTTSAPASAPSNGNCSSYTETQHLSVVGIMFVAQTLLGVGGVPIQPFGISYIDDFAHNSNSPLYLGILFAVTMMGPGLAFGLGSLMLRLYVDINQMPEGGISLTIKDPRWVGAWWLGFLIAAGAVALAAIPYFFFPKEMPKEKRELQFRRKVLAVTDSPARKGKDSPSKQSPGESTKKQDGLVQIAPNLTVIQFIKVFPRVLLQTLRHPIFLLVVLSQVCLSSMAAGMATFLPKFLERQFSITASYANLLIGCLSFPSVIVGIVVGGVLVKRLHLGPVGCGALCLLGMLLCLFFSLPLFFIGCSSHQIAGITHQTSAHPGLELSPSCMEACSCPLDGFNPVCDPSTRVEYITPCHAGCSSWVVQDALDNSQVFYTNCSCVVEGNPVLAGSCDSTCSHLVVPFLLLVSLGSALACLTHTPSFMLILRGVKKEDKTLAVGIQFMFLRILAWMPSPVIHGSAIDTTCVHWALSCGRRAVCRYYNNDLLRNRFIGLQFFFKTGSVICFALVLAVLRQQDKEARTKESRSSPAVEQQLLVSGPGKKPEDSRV
UniProt P84022, whole entry, looked up: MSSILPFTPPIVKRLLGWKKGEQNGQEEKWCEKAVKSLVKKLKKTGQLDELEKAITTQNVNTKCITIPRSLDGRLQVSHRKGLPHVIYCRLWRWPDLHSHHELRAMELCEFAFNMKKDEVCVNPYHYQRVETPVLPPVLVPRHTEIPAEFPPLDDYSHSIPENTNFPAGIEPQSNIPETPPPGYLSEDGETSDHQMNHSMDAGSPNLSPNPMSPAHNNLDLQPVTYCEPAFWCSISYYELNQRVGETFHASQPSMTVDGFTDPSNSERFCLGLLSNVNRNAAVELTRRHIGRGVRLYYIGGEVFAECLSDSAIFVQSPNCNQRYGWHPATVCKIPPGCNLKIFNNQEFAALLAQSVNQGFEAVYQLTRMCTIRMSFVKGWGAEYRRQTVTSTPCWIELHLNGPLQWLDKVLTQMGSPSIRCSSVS
UniProt Q9Y2E8: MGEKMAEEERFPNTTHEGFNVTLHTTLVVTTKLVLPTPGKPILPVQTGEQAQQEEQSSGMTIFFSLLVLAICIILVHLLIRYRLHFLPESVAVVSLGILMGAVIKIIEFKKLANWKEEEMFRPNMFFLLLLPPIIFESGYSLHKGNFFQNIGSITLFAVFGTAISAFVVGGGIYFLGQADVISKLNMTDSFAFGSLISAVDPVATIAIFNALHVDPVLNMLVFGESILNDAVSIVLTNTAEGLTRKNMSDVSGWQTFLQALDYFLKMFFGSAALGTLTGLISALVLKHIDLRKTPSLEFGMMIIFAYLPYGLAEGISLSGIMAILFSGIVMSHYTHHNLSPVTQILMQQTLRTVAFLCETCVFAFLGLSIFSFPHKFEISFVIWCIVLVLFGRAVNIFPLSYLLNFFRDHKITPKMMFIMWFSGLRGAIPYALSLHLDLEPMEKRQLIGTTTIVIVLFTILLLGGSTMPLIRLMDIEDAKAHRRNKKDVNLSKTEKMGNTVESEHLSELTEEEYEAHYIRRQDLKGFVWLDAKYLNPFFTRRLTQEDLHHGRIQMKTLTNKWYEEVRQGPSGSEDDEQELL
UniProt Q86WA9: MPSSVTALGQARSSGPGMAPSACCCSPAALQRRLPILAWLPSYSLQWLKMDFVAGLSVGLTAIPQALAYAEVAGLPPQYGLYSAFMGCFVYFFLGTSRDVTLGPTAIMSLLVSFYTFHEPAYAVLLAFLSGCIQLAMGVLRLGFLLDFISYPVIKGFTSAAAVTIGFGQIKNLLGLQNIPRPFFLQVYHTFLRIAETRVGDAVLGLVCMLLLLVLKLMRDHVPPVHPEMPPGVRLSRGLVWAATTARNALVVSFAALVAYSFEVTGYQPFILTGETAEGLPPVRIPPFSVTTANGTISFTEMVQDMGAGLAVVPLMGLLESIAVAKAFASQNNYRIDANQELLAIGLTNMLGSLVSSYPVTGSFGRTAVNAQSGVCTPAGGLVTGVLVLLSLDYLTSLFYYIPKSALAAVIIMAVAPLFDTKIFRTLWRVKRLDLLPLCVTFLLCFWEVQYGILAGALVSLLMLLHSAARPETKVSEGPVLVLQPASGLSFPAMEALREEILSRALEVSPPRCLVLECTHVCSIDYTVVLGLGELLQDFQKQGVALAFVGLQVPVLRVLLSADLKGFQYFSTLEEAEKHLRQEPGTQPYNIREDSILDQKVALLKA
UniProt Q8N755: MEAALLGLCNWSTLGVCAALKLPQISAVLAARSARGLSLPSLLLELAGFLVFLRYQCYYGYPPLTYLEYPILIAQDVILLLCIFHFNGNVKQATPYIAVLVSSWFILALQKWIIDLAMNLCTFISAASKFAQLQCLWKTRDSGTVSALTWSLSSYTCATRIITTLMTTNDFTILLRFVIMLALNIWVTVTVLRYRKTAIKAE
UniProt Q8N2U9: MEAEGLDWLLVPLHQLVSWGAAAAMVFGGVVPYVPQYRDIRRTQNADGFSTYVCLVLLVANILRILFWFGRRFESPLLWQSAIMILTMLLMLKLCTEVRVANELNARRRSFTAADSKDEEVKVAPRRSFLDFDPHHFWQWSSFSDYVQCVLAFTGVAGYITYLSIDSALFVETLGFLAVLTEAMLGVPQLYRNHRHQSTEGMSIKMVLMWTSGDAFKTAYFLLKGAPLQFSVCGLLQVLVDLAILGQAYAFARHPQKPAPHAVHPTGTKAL
UniProt Q96QE2: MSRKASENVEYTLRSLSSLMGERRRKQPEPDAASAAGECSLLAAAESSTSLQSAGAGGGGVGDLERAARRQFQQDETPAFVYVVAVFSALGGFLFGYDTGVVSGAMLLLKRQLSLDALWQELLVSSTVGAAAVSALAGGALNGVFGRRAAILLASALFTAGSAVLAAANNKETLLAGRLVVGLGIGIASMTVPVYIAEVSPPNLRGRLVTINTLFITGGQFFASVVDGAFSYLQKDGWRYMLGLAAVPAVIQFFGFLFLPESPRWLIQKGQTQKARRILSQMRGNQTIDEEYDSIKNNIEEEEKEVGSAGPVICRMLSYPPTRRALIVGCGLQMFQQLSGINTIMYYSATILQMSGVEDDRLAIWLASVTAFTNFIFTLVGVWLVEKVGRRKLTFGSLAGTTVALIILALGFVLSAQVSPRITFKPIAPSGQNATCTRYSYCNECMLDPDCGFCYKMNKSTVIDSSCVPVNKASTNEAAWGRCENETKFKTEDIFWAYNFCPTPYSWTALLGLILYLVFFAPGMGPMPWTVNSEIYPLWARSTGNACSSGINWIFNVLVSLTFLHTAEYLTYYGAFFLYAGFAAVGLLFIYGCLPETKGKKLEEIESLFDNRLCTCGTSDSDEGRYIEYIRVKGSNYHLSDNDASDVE

Test in all cases: log2 fold change, soluble protein after heating vs DMSO (PISA); higher = thermal stabilisation; K562 lysate, 10 uM; active = over 0.2 and 3.5 SD of the protein, either way, in both replicates (recomputed)
Compound in one assay: O=C(CCCCCCC(=O)Nc1ccccc1)NO [vorinostat]
A digest of the protocol:
(§1)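 Log-two fold change in thermal stability relative to solvent controls is reported from duplicates. For each sample, crude K562 extract from dounce-homogenised pellets in PBS pH 7.4 with 1 mM MgCl2, at 1 mg/mL protein, was treated with 10 μM compound for 30 min. Aliquots heated for 3 min across 48°C-58°C were pooled, brought to 0.5% NP-40 at 4°C and cleared at 21,000xg for 90 min. The supernatant was quantified by TMTpro 16plex LC-MS/MS with channel sums equalised.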

Compound in a further assay: O=C(O)c1ccc2c(c1)nc(Nc1cccc(Cl)c1)c1ccncc12 [silmitasertib]
A digest of the protocol:
as §1

Compound in assay [1]: O=C1NC(=O)C(c2cnc3ccccn23)=C1c1cn2c3c(cc(F)cc13)CN(C(=O)N1CCCCC1)CC2
A digest of the protocol: as §1

Compound in another assay: c1cn2cc(-c3ccc4cn[nH]c4c3)nc(Nc3ccc(N4CCOCC4)cc3)c2n1 [entospletinib]
A digest of the protocol: as §1

Compound in assay [2]: NCC(=O)Nc1ccc(-n2nc(C(F)(F)F)cc2-c2ccc3c(ccc4ccccc43)c2)cc1
In outline:
as §1

This is one part of the list.

SLC41A1 (UniProt Q8IVJ1): the log2 fold change with vorinostat is inactive: 0.06; in the assay with silmitasertib, inactive: -0.063; in assay [1] it was active: -0.37; with entospletinib it was inactive: 0.007.
For the target SLC46A1 (UniProt Q96NT5), the log2 fold change with vorinostat was inactive: 0.1; in the assay with silmitasertib, inactive: -0.051.
In the case of SLFN14 (UniProt P0C7P3), the results for the log2 fold change (in assay [2]; in assay [1]; in the assay with entospletinib) were inactive: -0.095, inactive: -0.072 and inactive: 0.127, respectively.
For the target SLC39A13 (UniProt Q96H72), the log2 fold change is inactive: -0.064 with vorinostat and inactive: -0.092 with silmitasertib.
As for SLC4A1 (UniProt P02730), the log2 fold change in assay [2] is inactive: 0.052; with vorinostat, inactive: 0.284; with silmitasertib, inactive: 0.088; in assay [1], inactive: 0.105; in the assay with entospletinib, inactive: -0.059.
For SLC35D1 (UniProt Q9NTN3), the log2 fold change is inactive: -0.211 in assay [2] and inactive: -0.088 in assay [1].
SLC35F2 (UniProt Q8IXU6): the log2 fold change is inactive: 0.009 in assay [2], inactive: 0.161 in the assay with vorinostat, inactive: -0.009 with silmitasertib and inactive: 0 in the assay with entospletinib.
Take SLC30A7 (UniProt Q8NEW0): the results for the log2 fold change (in assay [2]; in assay [1]; in the assay with entospletinib) were inactive: 0.034, inactive: -0.021 and inactive: -0.301, respectively.
For SLCO2B1 (UniProt O94956), the log2 fold change with entospletinib is inactive: 0.081.
SMAD3 (UniProt P84022): the log2 fold change in assay [1] was inactive: 0.042.
With SLC9A8 isoform 2 (UniProt Q9Y2E8), the log2 fold change in the assay with vorinostat is inactive: 0.102; with silmitasertib, inactive: 0.041; in assay [1] it was inactive: 0.008.
The corresponding values for SLC26A11 (UniProt Q86WA9) are inactive: 0.077, inactive: 0.128 and inactive: -0.029.
Turning to SLC25A23 isoform 3 (UniProt Q9BV35), the log2 fold change was inactive: 0.04 with vorinostat, inactive: -0.014 in the assay with silmitasertib and inactive: -0.048 in assay [1].
As for SLC66A3 (UniProt Q8N755), the values for the log2 fold change in assay [2] and in assay [1] were inactive: 0.023 and inactive: 0.105, respectively.
Regarding SLC66A2 (UniProt Q8N2U9), the results for the log2 fold change with vorinostat, with silmitasertib and with entospletinib were inactive: 0.031, inactive: 0.099 and inactive: -0.003, respectively.
On the same counts, the results for SLC2A13 (UniProt Q96QE2) are inactive: 0.157, inactive: -0.074 and inactive: 0.096.
Consider SLC36A4 (UniProt Q6YBV0), for which the log2 fold change was inactive: 0.218 in the assay with vorinostat, inactive: -0.073 with silmitasertib, inactive: 0.002 in assay [1] and inactive: -0.119 in the assay with entospletinib.
Consider SLC25A39 (UniProt Q9BZJ4), for which the values for the log2 fold change in the assay with vorinostat and in the assay with silmitasertib were inactive: 0.057 and inactive: 0.114, respectively.
